These are yes or no findings as the source states them, for the method shown. Binding can be weak; no strength is given.
Target: EtCDPK3 (Eimeria tenella)
Assay: two-hybrid; yeast two-hybrid screen for proteins interacting with EtCDPK3; no details given

B1: EtCHP18905 protein (conserved hypothetical protein of Eimeria tenella) (protein, UniProt U6KXM2 1-350)
chain: MDRDRRSVYAETDFRSYTGSGNNYFLLDGQDEEENPQMPELRLSRREFRMRHRKSTAGSRGLNKSVSEPTMRAWIAGFLLLSLALSISVASLNRSEEKQQKQQQNTLPAHEPDVRVPSSPSYSASAAYGAGGDAELKQEKLPMTRNLHRTFLSLSLTEDNGLLRTLQGPEWGPAKEALLRSVDLVLECQPDEFEDTDSKVETMRLMLAMDLACLENAAVETKLAVDNARASQSDNHSEDIAAKIKANIDARRKQSRAAELWEVEVLKGKLGSDPELKAALVKLLLAVRSRAASSEYLSATVGTVMLQSDPSPHSKAEENRAYEETTQTIETASCRSFSVNCKESQAGNGW
B1 was tested, and the binding was “binds”.
